Among the data in PMC8102552 are binding values, retold here.

By UniProt entry, the sequences of proteins in these tests, tags left out.
UniProt A2AWL7: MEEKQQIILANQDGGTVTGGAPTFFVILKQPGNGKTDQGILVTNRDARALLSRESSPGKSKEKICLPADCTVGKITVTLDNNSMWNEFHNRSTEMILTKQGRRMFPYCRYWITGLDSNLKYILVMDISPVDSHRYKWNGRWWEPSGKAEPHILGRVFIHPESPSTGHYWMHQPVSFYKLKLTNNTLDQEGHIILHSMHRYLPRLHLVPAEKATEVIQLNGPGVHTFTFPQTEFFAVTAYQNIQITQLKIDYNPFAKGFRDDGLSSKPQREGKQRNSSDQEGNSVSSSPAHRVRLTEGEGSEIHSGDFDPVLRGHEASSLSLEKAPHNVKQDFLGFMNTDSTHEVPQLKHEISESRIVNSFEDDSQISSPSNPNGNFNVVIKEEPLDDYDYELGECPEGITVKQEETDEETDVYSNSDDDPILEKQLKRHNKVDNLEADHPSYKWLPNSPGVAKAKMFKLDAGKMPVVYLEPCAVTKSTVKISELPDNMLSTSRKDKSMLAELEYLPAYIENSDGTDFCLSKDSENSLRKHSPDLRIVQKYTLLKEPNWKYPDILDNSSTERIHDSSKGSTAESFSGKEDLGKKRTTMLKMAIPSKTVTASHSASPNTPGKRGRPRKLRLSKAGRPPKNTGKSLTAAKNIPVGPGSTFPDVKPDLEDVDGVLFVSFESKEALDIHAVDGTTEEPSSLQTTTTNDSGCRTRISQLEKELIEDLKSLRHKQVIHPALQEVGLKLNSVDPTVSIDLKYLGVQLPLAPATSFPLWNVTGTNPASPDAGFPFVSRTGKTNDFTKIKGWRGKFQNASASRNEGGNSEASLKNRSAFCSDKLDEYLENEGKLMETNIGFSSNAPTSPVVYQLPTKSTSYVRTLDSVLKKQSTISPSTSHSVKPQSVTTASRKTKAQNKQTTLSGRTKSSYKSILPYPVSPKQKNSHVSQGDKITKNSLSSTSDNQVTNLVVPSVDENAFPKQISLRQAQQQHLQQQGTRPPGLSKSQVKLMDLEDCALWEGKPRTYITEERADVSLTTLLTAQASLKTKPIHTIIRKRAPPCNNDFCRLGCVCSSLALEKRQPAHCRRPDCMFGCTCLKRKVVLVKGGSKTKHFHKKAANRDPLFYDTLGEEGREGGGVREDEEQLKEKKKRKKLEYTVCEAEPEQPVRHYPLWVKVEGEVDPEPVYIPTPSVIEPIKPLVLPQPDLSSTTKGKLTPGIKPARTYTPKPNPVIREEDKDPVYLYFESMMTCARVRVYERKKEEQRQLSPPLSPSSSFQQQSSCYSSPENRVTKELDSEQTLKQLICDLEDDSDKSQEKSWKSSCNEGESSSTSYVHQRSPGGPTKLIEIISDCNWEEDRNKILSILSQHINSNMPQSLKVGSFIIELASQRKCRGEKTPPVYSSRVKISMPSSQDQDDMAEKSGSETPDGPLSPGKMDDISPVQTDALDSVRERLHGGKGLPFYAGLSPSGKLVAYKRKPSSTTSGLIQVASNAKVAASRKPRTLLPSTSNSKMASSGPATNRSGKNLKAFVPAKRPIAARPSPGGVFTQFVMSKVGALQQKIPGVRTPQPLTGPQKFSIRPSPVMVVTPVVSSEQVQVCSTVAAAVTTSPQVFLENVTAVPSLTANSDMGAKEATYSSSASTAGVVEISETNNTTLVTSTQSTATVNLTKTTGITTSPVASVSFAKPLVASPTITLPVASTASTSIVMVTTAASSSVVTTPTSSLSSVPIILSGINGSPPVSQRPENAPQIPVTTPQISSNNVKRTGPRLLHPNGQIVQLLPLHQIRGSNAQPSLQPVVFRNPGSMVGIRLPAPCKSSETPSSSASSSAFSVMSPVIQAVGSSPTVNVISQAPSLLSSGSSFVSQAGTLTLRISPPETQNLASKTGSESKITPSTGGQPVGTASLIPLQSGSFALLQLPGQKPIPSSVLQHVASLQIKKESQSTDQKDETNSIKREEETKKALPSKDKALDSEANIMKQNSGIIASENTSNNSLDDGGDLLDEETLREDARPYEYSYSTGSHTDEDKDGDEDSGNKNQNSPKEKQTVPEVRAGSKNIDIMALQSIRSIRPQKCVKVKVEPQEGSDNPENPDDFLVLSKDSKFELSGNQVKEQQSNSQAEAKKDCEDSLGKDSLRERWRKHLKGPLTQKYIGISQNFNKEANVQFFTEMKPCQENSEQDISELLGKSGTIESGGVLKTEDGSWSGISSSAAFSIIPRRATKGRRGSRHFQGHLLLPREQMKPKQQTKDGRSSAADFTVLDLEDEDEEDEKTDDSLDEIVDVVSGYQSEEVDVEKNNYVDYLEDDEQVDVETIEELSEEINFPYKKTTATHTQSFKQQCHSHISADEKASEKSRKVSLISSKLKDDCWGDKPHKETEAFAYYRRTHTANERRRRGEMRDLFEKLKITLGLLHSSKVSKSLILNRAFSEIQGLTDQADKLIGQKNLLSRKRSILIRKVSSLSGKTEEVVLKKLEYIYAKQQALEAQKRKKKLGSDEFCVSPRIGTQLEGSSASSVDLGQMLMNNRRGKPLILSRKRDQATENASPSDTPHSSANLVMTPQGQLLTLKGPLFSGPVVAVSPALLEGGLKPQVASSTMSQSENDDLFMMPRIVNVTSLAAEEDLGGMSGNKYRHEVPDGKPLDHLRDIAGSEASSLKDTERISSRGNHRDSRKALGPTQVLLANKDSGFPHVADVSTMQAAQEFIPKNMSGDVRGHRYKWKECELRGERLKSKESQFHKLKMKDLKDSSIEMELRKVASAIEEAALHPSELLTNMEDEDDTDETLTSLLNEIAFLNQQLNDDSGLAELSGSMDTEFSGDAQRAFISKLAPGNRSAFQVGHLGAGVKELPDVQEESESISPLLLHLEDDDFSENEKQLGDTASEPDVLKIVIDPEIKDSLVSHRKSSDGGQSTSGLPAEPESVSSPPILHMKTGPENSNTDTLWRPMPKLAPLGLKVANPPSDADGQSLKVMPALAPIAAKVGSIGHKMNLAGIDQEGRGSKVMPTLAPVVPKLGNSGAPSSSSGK
UniProt Q13185: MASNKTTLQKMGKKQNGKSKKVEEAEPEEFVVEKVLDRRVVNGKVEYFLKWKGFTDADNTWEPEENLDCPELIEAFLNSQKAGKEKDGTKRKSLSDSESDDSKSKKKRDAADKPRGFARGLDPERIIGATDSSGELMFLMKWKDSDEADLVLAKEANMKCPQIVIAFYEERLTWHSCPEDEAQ
UniProt P61244: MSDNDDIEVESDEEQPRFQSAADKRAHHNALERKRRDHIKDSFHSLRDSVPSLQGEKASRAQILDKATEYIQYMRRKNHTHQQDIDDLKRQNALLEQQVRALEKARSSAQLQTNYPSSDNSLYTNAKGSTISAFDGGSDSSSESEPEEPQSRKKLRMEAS
UniProt Q99496: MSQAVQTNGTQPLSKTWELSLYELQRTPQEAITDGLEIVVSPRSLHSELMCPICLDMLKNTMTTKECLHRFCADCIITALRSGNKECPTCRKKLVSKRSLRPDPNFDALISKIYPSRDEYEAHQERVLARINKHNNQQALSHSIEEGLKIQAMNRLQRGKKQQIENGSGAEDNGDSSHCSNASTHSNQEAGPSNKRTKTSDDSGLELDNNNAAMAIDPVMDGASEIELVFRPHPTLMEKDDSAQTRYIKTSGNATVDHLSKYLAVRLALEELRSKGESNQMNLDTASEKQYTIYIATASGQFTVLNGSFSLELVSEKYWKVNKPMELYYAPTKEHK
UniProt Q15022: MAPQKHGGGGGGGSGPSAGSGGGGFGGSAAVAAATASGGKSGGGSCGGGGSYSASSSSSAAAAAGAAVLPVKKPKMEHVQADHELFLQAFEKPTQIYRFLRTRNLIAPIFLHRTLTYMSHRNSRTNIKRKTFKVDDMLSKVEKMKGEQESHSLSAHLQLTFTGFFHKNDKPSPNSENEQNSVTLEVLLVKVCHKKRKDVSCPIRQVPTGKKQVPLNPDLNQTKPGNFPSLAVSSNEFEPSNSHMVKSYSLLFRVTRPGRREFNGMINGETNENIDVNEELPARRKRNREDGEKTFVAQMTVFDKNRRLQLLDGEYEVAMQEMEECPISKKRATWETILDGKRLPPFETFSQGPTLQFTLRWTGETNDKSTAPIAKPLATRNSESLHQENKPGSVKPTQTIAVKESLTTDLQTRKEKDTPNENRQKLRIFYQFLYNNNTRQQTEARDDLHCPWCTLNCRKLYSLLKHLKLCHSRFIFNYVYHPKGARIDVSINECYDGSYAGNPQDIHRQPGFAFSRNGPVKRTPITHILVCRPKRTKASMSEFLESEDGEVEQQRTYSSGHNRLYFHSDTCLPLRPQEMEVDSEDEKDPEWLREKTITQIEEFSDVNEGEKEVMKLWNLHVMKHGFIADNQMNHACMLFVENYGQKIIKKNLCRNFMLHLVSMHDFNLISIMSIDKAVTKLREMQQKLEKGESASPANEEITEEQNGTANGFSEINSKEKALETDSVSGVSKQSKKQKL

The assay addresses Flag-tagged canonical MGA (mouse) (UniProt A2AWL7). The assay is described as follows: co-IP; anti-Flag antibody (control: normal mouse IgG) with Dynabeads bearing anti-mouse IgG added to nuclear extract (300 mM NaCl) of transiently transfected HEK293FT cells (MGA-null by the legend); 1 h at 4 °C; washed with PBS containing 0.1% BSA; western blot.

No constants are given. Whether binding was seen depends on the method and setting. In cells and extracts the contact can be indirect. Some entries that bind do so weakly or less than the wild type.

Regarding HP1γ (from UniProt Q13185 1-183), the binding entry is “binds”.
Next, MAX (from UniProt P61244 1-160): “binds”; RING1B (from UniProt Q99496 1-336): “binds”; SUZ12 (from UniProt Q15022 1-739): “no binding”.

B1: PCGF6 (protein, UniProt Q9BYE7 1-350)
chain: MEGVAVVTAGSVGAAKTEGAAALPPPPPVSPPALTPAPAAGEEGPAPLSETGAPGCSGSRPPELEPERSLGRFRGRFEDEDEELEEEEELEEEEEEEEEDMSHFSLRLEGGRQDSEDEEERLINLSELTPYILCSICKGYLIDATTITECLHTFCKSCIVRHFYYSNRCPKCNIVVHQTQPLYNIRLDRQLQDIVYKLVINLEEREKKQMHDFYKERGLEVPKPAVPQPVPSSKGRSKKVLESVFRIPPELDMSLLLEFIGANEGTGHFKPLEKKFVRVSGEATIGHVEKFLRRKMGLDPACQVDIICGDHLLEQYQTLREIRRAIGDAAMQDGLLVLHYGLVVSPLKIT
For B1, the binding result is reported as “binds”.
